# From patent US20210009750A1, “3D PRINTING COMPOSITION FOR BIOMATERIALS” (TISSIUM SA, priority 2018, published 2021)
# Assays:
# [1] = Solvent extraction of TPO from 3D printed PGSA constructs; conditions: 3D constructs immersed in extraction solvent 1 mL/10 mg, 18 to 24 hours, solvent exchanged 3 to 6 times
# [2] = Solvent extraction of BBOT from 3D printed PGSA constructs; conditions: 3D constructs immersed in extraction solvent 1 mL/10 mg, 18 to 24 hours, solvent exchanged 3 to 6 times
smiles,measurement,setting,value
"CCOCC [DEE, diethyl ether]",Extraction solution concentration TPO,[1],2762 ppm
same,Extraction solution concentration BBOT,[2],482 ppm
"CC(C)O [IPA, isopropyl alcohol]",Extraction solution concentration TPO,[1],2593 ppm
same,Extraction solution concentration BBOT,[2],395 ppm
"ClCCl [DCM, dichloromethane]",Extraction solution concentration TPO,[1],2495 ppm
same,Extraction solution concentration BBOT,[2],443 ppm
"CCO [etOH, ethanol]",Extraction solution concentration TPO,[1],2779 ppm
same,Extraction solution concentration BBOT,[2],450 ppm
"CCOC(C)=O [Ethyl acetate, ethyl acetate]",Extraction solution concentration TPO,[1],2641 ppm
same,Extraction solution concentration BBOT,[2],461 ppm
"CC(C)=O [Acetone, acetone]",Extraction solution concentration TPO,[1],2662 ppm
same,Extraction solution concentration BBOT,[2],442 ppm
"C1CCOC1 [THF, tetrahydrofuran]",Extraction solution concentration TPO,[1],2625 ppm
same,Extraction solution concentration BBOT,[2],461 ppm
"C[S+](C)[O-] [DMSO, dimethyl sulfoxide]",Extraction solution concentration TPO,[1],3173 ppm
same,Extraction solution concentration BBOT,[2],494 ppm
"CN1CCCC1=O [NMP, N-Methyl-2-pyrrolidone]",Extraction solution concentration TPO,[1],2757 ppm
same,Extraction solution concentration BBOT,[2],506 ppm
